By AC50 is commonly meant the midpoint of the concentration-response curve, whichever way the signal moves. High values mean weaker potency, low ones greater potency.

The other results are listed elsewhere or left out. The main result of the screen is listed elsewhere. These columns were measured beside it and carry no call. Most of these compounds were active or inconclusive in the main read-out, so they are no random draw. Potencies come from curve fits of mixed quality, noted in brackets.

The nature of the assay: qHTS Assay for Lipid Storage Modulators in Drosophila S3 Cells.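 For cell number change: cells counted by Cell Tracker Red CMTPX staining in the red channel.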 To be noted: BODIPY lipid droplet fluorescence, 18-24 h; for cell number change: measured here: cell count max response, cells fed with added oleic acid. The gist of the method:
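Drosophila S3 cells got compounds at several concentrations plus oleic acid (400 uM solution). Laser-scanning cytometry with 488 nm excitation read lipid droplets at 500-530 nm and cells at 575-640 nm. Percent activity was relative to 20 uM Triacsin C.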

[1] abbreviates: measured here: lipid fluorescence (Fed channel) AC50, cells fed with added oleic acid.
The mark [2] stands for this setting: measured here: cell number channel AC50, cells fed with added oleic acid.

For the molecule `CCSc1ncc(/C=N/Nc2ccccc2)n1C`, the half-maximal activity concentration (AC50) under setting [1] is 0.651 µM [rising, single point].

For `O=C1c2ccccc2C(=O)c2c1cccc2N1CCN(Cc2ccccc2)CC1`, the AC50 under setting [1] was 6.51 µM [falling, single point].

Turning to `Cc1cc(C)c(NC(=O)/C(=C/c2ccccc2)c2ccccc2)c(C)c1`, the cell number change was -37.4%. Also, the AC50 under setting [2] is 11.6 µM [falling, partial curve]. Besides, the half-maximal activity concentration (AC50) under setting [1] is 0.651 µM [falling, full curve, poor fit].

With `Cc1ccc2nc(Cn3cc(C(F)(F)F)ccc3=O)cc(=O)n2c1`, the cell number change worked out at 4.44%.

As to `CCN(CC)S(=O)(=O)c1cccc(NC(=O)COC(=O)C2COc3ccccc3O2)c1` (configuration not stated), the cell number change was -3.73%. Further, under setting [1], the AC50 was 6.51 µM [falling, single point].

With `Cc1ccc(NC(=O)/C(=C\c2cccc([N+](=O)[O-])c2)NC(=O)c2cccs2)cc1`, the cell number change turned out to be 15.5%. Besides, the AC50 under setting [1] is 20.6 µM [falling, single point].

As for `COc1cc(OC)c(NC(=O)CCc2ccccc2)cc1Cl`, the half-maximal activity concentration (AC50) under setting [1] is 6.51 µM [rising, single point].

Regarding `O=C(/C=C/c1ccc[nH]1)c1ccc(F)cc1`, the cell number change stood at 1.59%. Under setting [1], the AC50 was 29.1 µM [falling, single point].

Take `COc1ccccc1NC(=O)CCc1nc2sc3c(c2c(=O)[nH]1)CCCC3`: the cell number change was determined as 74.4%. The AC50 under setting [2] was 20.6 µM [rising, partial curve].

As to `N#C/C(=C\c1ccccc1)C(=O)OCC(=O)N1CCCC1`, the cell number change is -20.2%. In addition, the concentration at half-maximal activity (AC50) under setting [2] is 1.46 µM [falling, partial curve, poor fit]. Further, the AC50 under setting [1] is 6.51 µM [falling, single point].

`CCN(CC)C(=O)c1cn(CC)c(=O)c2cc(OC)c(OC)cc12`: the half-maximal activity concentration (AC50) under setting [2] was 1.46 µM [falling, partial curve].

In the case of `Cc1c(OC(C)C(=O)N2C[C@H]3C[C@@H](C2)c2cccc(=O)n2C3)ccc2c3c(c(=O)oc12)CCCC3` (some centres not stated), the cell number change is 3.24%.

Turning to `COc1cccc(-c2nc(CS(=O)(=O)CC(=O)NCc3ccc4c(c3)OCO4)c(C)o2)c1`, the cell number change is 5.81%. Also, the AC50 under setting [1] was 32.6 µM [falling, partial curve, poor fit].

For `CN(C)C1(CNC(=O)C2CCN(S(=O)(=O)c3ccccc3C(F)(F)F)CC2)CCCCC1`, the cell number change is -7.78%.

As for `CCN(CC)CCCN(C(=O)c1ccc(Br)cc1)c1nc(-c2ccc(OC)cc2)cs1`, the cell number change is -17.4%. Besides, the AC50 under setting [1] was 32.6 µM [falling, partial curve].

Consider `C=CCc1cc(Cl)ccc1OCCOCCNC(C)(C)C`, for which the cell number change is -52.8%. Moreover, under setting [2], the AC50 was 29.1 µM [falling, single point]. The AC50 under setting [1] is 29.1 µM [falling, single point].

Take `COc1cc2c(cc1OC)C(c1cccc(OC)c1OC)CC(=O)N2` (configuration not stated): the cell number change was -32.7%. Also, the AC50 under setting [2] was 0.366 µM [falling, full curve, poor fit]. In addition, the AC50 under setting [1] was 7.31 µM [rising, full curve, poor fit].

Consider `C/C=C/C=C/C(=O)OCC(=O)Nc1ccc(Cl)cc1`, for which the cell number change is -5.56%. Also, the AC50 under setting [2] was 6.51 µM [rising, single point]. The AC50 under setting [1] is 6.51 µM [rising, single point].

As for `O=[N+]([O-])c1ccc(/C=C/C2=NN(c3ccccc3)C(c3ccco3)C2)cc1` (configuration not stated), the cell number change is -99.7%. In addition, under setting [2], the AC50 was 1.16 µM [falling, full curve]. In addition, the AC50 under setting [1] was 0.0259 µM [falling, full curve].

Turning to `COc1ccc(C2CC(C(F)(F)F)n3nc(C(=O)NCc4c(C)nn(C)c4C)c(Cl)c3N2)cc1` (configuration not stated), the cell number change is -34.4%. Under setting [2], the concentration at half-maximal activity (AC50) is 18.4 µM [falling, partial curve, poor fit].

As for `COc1ccc(/C(C)=N/OCC(=O)N=Nc2c(O)[nH]c3ccc(Br)cc23)cc1`, the cell number change amounted to 683%. Moreover, the concentration at half-maximal activity (AC50) under setting [2] was 29.1 µM [rising, partial curve].

Consider `Cn1c(=O)c2ccccc2n(CC(=O)N2CCCc3ccccc32)c1=O`, for which the cell number change was -0.833%. Besides, the AC50 under setting [1] was 0.731 µM [rising, partial curve, poor fit].

Regarding `O=C(COC(=O)c1ccc(N2CCOCC2)c([N+](=O)[O-])c1)Nc1ccc2c(c1)OCO2`, the cell number change was -26.5%. For the same molecule, the AC50 under setting [1] was 0.164 µM [rising, full curve, poor fit].

As for `COc1cc(C2C3=C(CC(C)(C)CC3=O)N(C)C(=O)N2C)cc(OC)c1OC` (configuration not stated), the cell number change is -0.407%.

Consider `O=C(O)Cc1cc2c(s1)CCCCC2`, for which the cell number change came to 5.85%. Under setting [1], the AC50 is 16.4 µM [falling, partial curve].

As to `CSc1nc2ccc(NS(=O)(=O)c3ccc(Cl)s3)cc2s1`, the cell number change is -41.6%. Also, the AC50 under setting [2] was 29.1 µM [falling, single point]. The AC50 under setting [1] was 32.6 µM [falling, single point].

As for `O=C(NC1CCSc2ccccc21)c1cccc(Br)c1` (configuration not stated), the AC50 under setting [1] was 29.1 µM [falling, single point].

For the molecule `Cc1cc(C(=O)CSc2nc(N)cc(=O)[nH]2)c(C)n1Cc1ccco1`, the cell number change is -7.29%. The AC50 under setting [1] was 18.4 µM [falling, single point].

Take `O=C(NC(=S)N1CCCCCC1)c1ccc(Cl)cc1Cl`: the cell number change was 8.08%. In addition, under setting [1], the AC50 was 0.461 µM [rising, full curve, poor fit].

For the molecule `COc1ccccc1-n1cc(-c2ccccc2)c2c(=S)nc[nH]c21`, the AC50 under setting [1] is 0.58 µM [falling, single point].

Regarding `CC1CN(C(=O)c2cccc(S(=O)(=O)Nc3ccc(Cl)cc3)c2)CC(C)O1` (configuration not stated), the cell number change was determined as 36.5%. Moreover, the AC50 under setting [2] was 14.6 µM [rising, single point]. In addition, the AC50 under setting [1] was 29.1 µM [rising, single point].

For `CCN(CC)c1ccc(-c2sc(Nc3ccccc3)n[n+]2-c2ccc(F)cc2)cc1`, the cell number change stood at 14.6%. For the same molecule, the AC50 under setting [1] was 29.1 µM [falling, partial curve, poor fit].

For `CN(CCOc1ccccc1)C(=O)c1cc(-c2ccco2)nc2ccccc12`, the cell number change is -1.65%. Also, the AC50 under setting [1] was 0.517 µM [rising, full curve].

For the molecule `O=C(Nc1nc(-c2ccccc2)cs1)C1CCCN(S(=O)(=O)c2ccccc2)C1` (configuration not stated), the cell number change was -87.1%. In addition, under setting [2], the AC50 was 18.4 µM [falling, partial curve]. Under setting [1], the half-maximal activity concentration (AC50) is 20.6 µM [falling, partial curve].

With `O=C1CCN(c2ncccc2[N+](=O)[O-])CC1`, the cell number change was found to be 27%. For the same molecule, under setting [2], the AC50 was 0.291 µM [falling, full curve]. Besides, under setting [1], the AC50 is 29.1 µM [rising, single point].

For `NC(=O)c1nsc(C(=O)N(c2ccccc2)C(C(=O)NC2CCCC2)c2cccs2)c1N` (configuration not stated), the AC50 under setting [1] was 6.51 µM [falling, single point].

With `CCCCCCCCCCCC(=O)N/N=C/c1ccco1`, the cell number change was -45.8%. Also, under setting [2], the AC50 was 3.66 µM [falling, full curve]. Besides, the AC50 under setting [1] was 29.1 µM [falling, single point].

Take `Cc1cc(N2CCN(c3cccc(C(F)(F)F)c3)CC2)n2nc(C)nc2n1`: the cell number change was -2.37%. For the same molecule, under setting [1], the AC50 was 2.59 µM [rising, full curve].

For `Cc1ccc2c(c1)C1CN(C)CCC1N2S(=O)(=O)c1cccc(C(F)(F)F)c1` (configuration not stated), the cell number change was determined as 19.5%. The AC50 under setting [1] is 32.6 µM [rising, partial curve, poor fit].

As to `Cc1cc(C(=O)CSc2nn3c(=O)c(C(C)(C)C)nnc3s2)c(C)n1C`, the cell number change was 2.49%. In addition, the AC50 under setting [1] is 1.84 µM [falling, partial curve].

As for `CCOC(=O)c1nn(-c2ccccc2C)c2nc(-c3ccc(C)cc3)c(C#N)c(=O)n12`, the cell number change was 5.84%.

For the molecule `Cc1cccc2cc(CN(Cc3ccco3)C(=O)c3cccs3)c(=O)[nH]c12`, the AC50 under setting [2] is 0.146 µM [rising, full curve, poor fit] and the AC50 under setting [1] was 0.146 µM [rising, full curve, poor fit].

Consider `NC(=O)c1ccc(NC(=O)Cn2c(=O)n(-c3ccccc3)c(=O)c3oc4ccccc4c32)cc1`, for which the cell number change stood at 33.6%. For the same molecule, under setting [2], the AC50 is 14.6 µM [rising, single point]. Also, under setting [1], the AC50 was 29.1 µM [rising, single point].

With `COc1ccc(C(=O)c2cc([N+](=O)[O-])ccc2N2CCN(C)CC2)cc1`, the cell number change is -5.65%. The AC50 under setting [1] is 0.00461 µM [falling, full curve, poor fit].

As to `CCOC(=O)Cc1csc(NC(=O)c2c(O)c3ccccc3n(CC(C)C)c2=O)n1`, the cell number change is 32.1%. The half-maximal activity concentration (AC50) under setting [2] is 2.59 µM [rising, full curve, poor fit]. Besides, the AC50 under setting [1] is 1.16 µM [rising, partial curve].

With `COc1cccc(NC(=O)Nc2c(C)n(C)n(-c3ccccc3)c2=O)c1`, the cell number change stood at 31%. The AC50 under setting [2] is 16.4 µM [rising, partial curve, poor fit].

For the molecule `O=C(N/N=C/C(Cl)=C/c1ccccc1)c1ccccc1F`, the cell number change amounted to 8.11%. Besides, the half-maximal activity concentration (AC50) under setting [1] is 11.6 µM [falling, single point].

Turning to `Cc1cc(=O)oc2cc(OC(C)C(=O)NCC3CCC(C(=O)O)CC3)ccc12` (configuration not stated), the cell number change amounted to 4.53%. Also, the concentration at half-maximal activity (AC50) under setting [1] is 0.164 µM [falling, full curve, poor fit].

In the case of `COc1ccccc1C(=O)NCC(c1cccnc1)N(C)C` (configuration not stated), the cell number change was -7.32%. Further, under setting [1], the AC50 was 0.461 µM [rising, partial curve].

`O=c1oc2c3c4c(cc2s1)CCCN4CCC3`: the cell number change came to 390%. Further, the half-maximal activity concentration (AC50) under setting [2] was 20.6 µM [rising, partial curve]. Further, the AC50 under setting [1] is 20.6 µM [rising, partial curve].

As for `COc1cccc(NC(=O)Cn2c3ccccc3c3nc4n(c(=O)c32)CCS4)c1`, the cell number change was -165%. Further, the AC50 under setting [2] is 29.1 µM [falling, single point]. For the same molecule, under setting [1], the AC50 is 29.1 µM [falling, single point].

Take `Cc1ccc(Cl)cc1NC(=S)N(CCCN1CCN(C)CC1)Cc1cccs1`: the AC50 under setting [1] was 5.8 µM [falling, single point].

Turning to `CS(=O)(=O)NNC(=O)c1csc(Cc2c(Cl)sc3ccc(Cl)cc23)n1`, the cell number change is -5.71%. In addition, the AC50 under setting [2] was 0.13 µM [rising, full curve, poor fit].

In the case of `COc1cc(CC(=O)OCn2nnc3ccccc3c2=O)cc(OC)c1OC`, the cell number change is 94.7%. The AC50 under setting [2] is 16.4 µM [rising, partial curve].

On to `COc1ccc(N2CC(C(=O)Nc3nc4ccc(F)cc4s3)CC2=O)c(OC)c1` (configuration not stated), for which the cell number change turned out to be 11.5%. In addition, under setting [1], the AC50 was 6.31 µM [rising, single point].
